PubChem BioAssay AID1259331 – Drosophila RNAi Screening Center – 2017
This is a random part of about 3,100 reagents. Over the whole deposit, 126 (4.1%) were called active. 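Calls are per reagent; zinc was so toxic that few knock-downs lowered ATP further, so most hits raise ATP.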 Raw values vary from plate to plate and are shown uncorrected. A plus sign joins genes that one reagent is predicted to hit. Not given: the amount of reagent.

- Assay: 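Knock-downs that alter ATP level after a high zinc chloride dose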 (primary screen)
- Cell system: Drosophila S2R+ cells
- Reagent: long dsRNA against Drosophila genes
- Timing: 5 days (4 days knock-down, then 1 day zinc)
- Challenge: zinc chloride at 15 mM final level for 1 day
- Detection: 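Total cellular ATP measured by luciferase luminescence as a viability proxy, turned into Z scores from three plate copies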
- Direction: mean Z score: higher = more ATP than other wells, better survival under zinc; ATP luminescence: higher = more ATP, more viable cells
- Active means: 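a reagent is called a hit when its Z score is above 1.5 or below -1.5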
- Calls: active = hit, ATP up or down; inactive = not a hit

Irk2 (Inwardly rectifying potassium channel 2) [DRSC15569] — mean Z score: -0.487; ATP luminescence, replicate 1: 38244; ATP luminescence, replicate 2: 42011; call: inactive
Irk2 (Inwardly rectifying potassium channel 2) [DRSC39572] — mean Z score: -0.0539; ATP luminescence, replicate 1: 61643; ATP luminescence, replicate 2: 62227; call: inactive
CG5906 [DRSC10557] — mean Z score: 0.247; ATP luminescence, replicate 1: 82671; ATP luminescence, replicate 2: 62467; call: inactive
sut4 (sugar transporter 4) [DRSC07703] — mean Z score: -0.548; ATP luminescence, replicate 1: 27868; ATP luminescence, replicate 2: 27079; call: inactive
sut4 (sugar transporter 4) [DRSC24885] — mean Z score: 0.0343; ATP luminescence, replicate 1: 57151; ATP luminescence, replicate 2: 57642; call: inactive
CG7970 [DRSC08605] — mean Z score: 0.00124; ATP luminescence, replicate 1: 28011; ATP luminescence, replicate 2: 30542; call: inactive
CG7970 [DRSC26090] — mean Z score: 0.231; ATP luminescence, replicate 1: 62844; ATP luminescence, replicate 2: 59963; call: inactive
Gr36a (Gustatory receptor 36a) [DRSC22663] — mean Z score: -0.426; ATP luminescence, replicate 1: 49040; ATP luminescence, replicate 2: 36422; call: inactive
Gr36a (Gustatory receptor 36a) [DRSC27724] — mean Z score: -0.258; ATP luminescence, replicate 1: 51972; ATP luminescence, replicate 2: 54403; call: inactive
Arts + Apl [DRSC10349] — mean Z score: -0.0454; ATP luminescence, replicate 1: 79343; ATP luminescence, replicate 2: 53346; call: inactive
Zip71B (Zinc/iron regulated transporter-related protein 71B) [DRSC09686] — mean Z score: -0.642; ATP luminescence, replicate 1: 68709; ATP luminescence, replicate 2: 48922; call: inactive
Zip71B (Zinc/iron regulated transporter-related protein 71B) [DRSC29491] — mean Z score: 0.161; ATP luminescence, replicate 1: 62038; ATP luminescence, replicate 2: 65760; call: inactive
CG32795 [DRSC18609] — mean Z score: -0.171; ATP luminescence, replicate 1: 38273; ATP luminescence, replicate 2: 42028; call: inactive
CG32795 [DRSC18610] — mean Z score: 0.21; ATP luminescence, replicate 1: 40963; ATP luminescence, replicate 2: 54219; call: inactive
Ir76b (Ionotropic receptor 76b) [DRSC10831] — mean Z score: -0.554; ATP luminescence, replicate 1: 68469; ATP luminescence, replicate 2: 57374; call: inactive
Ir76b (Ionotropic receptor 76b) [DRSC39663] — mean Z score: 0.149; ATP luminescence, replicate 1: 67372; ATP luminescence, replicate 2: 58421; call: inactive
Tsp42Eq (Tetraspanin 42Eq) [DRSC06180] — mean Z score: 0.22; ATP luminescence, replicate 1: 77165; ATP luminescence, replicate 2: 77028; call: inactive
CG14511 [DRSC14863] — mean Z score: 0.172; ATP luminescence, replicate 1: 77285; ATP luminescence, replicate 2: 60323; call: inactive
CG14511 [DRSC26574] — mean Z score: 0.115; ATP luminescence, replicate 1: 59686; ATP luminescence, replicate 2: 56225; call: inactive
zpg (zero population growth) [DRSC09702] — mean Z score: -0.218; ATP luminescence, replicate 1: 70956; ATP luminescence, replicate 2: 55539; call: inactive
zpg (zero population growth) [DRSC26258] — mean Z score: -0.0662; ATP luminescence, replicate 1: 58577; ATP luminescence, replicate 2: 57717; call: inactive
Tsp42Ea (Tetraspanin 42Ea) [DRSC04982] — mean Z score: 0.527; ATP luminescence, replicate 1: 95966; ATP luminescence, replicate 2: 79755; call: inactive
Tsp42Ea (Tetraspanin 42Ea) [DRSC06792] — mean Z score: -0.325; ATP luminescence, replicate 1: 78537; ATP luminescence, replicate 2: 71231; call: inactive
CG11857 [DRSC14411] — mean Z score: 0.178; ATP luminescence, replicate 1: 38273; ATP luminescence, replicate 2: 63600; call: inactive
Osi4 (Osiris 4) [DRSC12134] — mean Z score: -0.289; ATP luminescence, replicate 1: 69961; ATP luminescence, replicate 2: 52915; call: inactive
Osi4 (Osiris 4) [DRSC39716] — mean Z score: -0.703; ATP luminescence, replicate 1: 53824; ATP luminescence, replicate 2: 47994; call: inactive
ste24a (prenyl protease type I) [DRSC07314] — mean Z score: -0.0376; ATP luminescence, replicate 1: 30642; ATP luminescence, replicate 2: 31716; call: inactive
ste24a (prenyl protease type I) [DRSC26491] — mean Z score: -0.451; ATP luminescence, replicate 1: 61249; ATP luminescence, replicate 2: 56225; call: inactive
Eglp2 (Entomoglyceroporin 2) [DRSC04294] — mean Z score: -0.622; ATP luminescence, replicate 1: 25931; ATP luminescence, replicate 2: 25022; call: inactive
Eglp2 (Entomoglyceroporin 2) [DRSC39691] — mean Z score: -0.219; ATP luminescence, replicate 1: 60725; ATP luminescence, replicate 2: 55598; call: inactive

A few values from the list.
Under “ATP luminescence, replicate 1”, Eglp2 (Entomoglyceroporin 2) [DRSC39691] reads 60725
zpg (zero population growth) [DRSC09702], ATP luminescence, replicate 1: 70956
Value of CG7970 [DRSC08605] in “mean Z score”: 0.00124
For “mean Z score”, Tsp42Ea (Tetraspanin 42Ea) [DRSC04982] reads 0.527
